Laboratory results reported in PubChem BioAssay (Tox21).
Where “and” joins values, the source holds several entries; their conditions need not be identical. Equal values may be shown once. The shares of active, inactive and inconclusive entries below differ from those in the screen. Potencies beside an inconclusive call are fits to weak or partial responses and may not hold up. Calls of active or inactive are those of the source. Calls come from the whole dose curve.

What follows are compounds tested against Beta-2 adrenergic receptor (Homo sapiens) (UniProt P07550) (assay: Adrenergic beta2 receptor (ADRB2) small molecule agonists, cell-based qHTS assay (AID 1963593)). Conditions: CHO-ADRB2 cells, cAMP HTRF, 30 min; activation: at 92.4 µM (top of the series) unless noted.
Text: National Center for Advancing Translational Sciences [NCATS]
Division of Preclinical Innovation [DPI]
U.S. Environmental Protection Agency [EPA]
National Institutes of Environmental Health Sciences [NIEHS]
National Toxicology Program [NTP]
U.S. Food and Drug Administration [FDA]
Beta adrenergic receptors (Beta-ARs) belong to the G-protein coupled receptor (GPCR) superfamily, includes three subtypes - beta1, beta2, and beta3. Beta1-AR is the predominant receptor subtype expressed in the heart, and beta2-AR is expressed in the kidney, lung, blood vessel and in the heart, and beta3 is found in the adipocytes. Beta1 and 2 ARs couple to Gs protein and elevate cyclic adenosine mono phosphate (cAMP), which activates protein kinase A and leads to the downstream signaling responsible for the physiological actions. Beta-AR agonists or antagonists are the most prescribed therapeutic agents for heart failure and asthma, and these were one of the first target receptors for the rational drug design. Tox21 10K compound library was screened using the cAMP-Gs dynamic assay (Cisbio Bioassays, Shelton, CT) to identify agonists/antagonists of the Gs-coupled human adrenergic, beta2 receptor (ADRB2) in the CHO-ADRB2 cell line (Codex BioSolutions, Inc. Gaithersburg, MD), which stably over-expresses ADRB2. The principle of cAMP-Gs dynamic assay is based on HTRF technology, which facilitates the fluorescence resonance energy transfer (FRET) between donor Europium cryptate and acceptor d2-labeled cAMP. The cAMP generated within cells competes with the red acceptor, d2-labled cAMP, for binding to the monoclonal anti-cAMP-cryptate (Europium donor). An increase in intracellular cAMP leads to the disruption of FRET signal, and the signal is inversely proportional to the cAMP concentration. Isoproterenol HCl (Sigma-Aldrich, St. Louis, MO) was used as a positive control in the screening.
Tox21 Assay Protocol Summary:
CHO-ADRB2 cells were dispensed at 1,000/well in 4uL assay medium into white/solid 1536-well plates (Greiner Bio-One North America Inc., Monroe, NC) using a Multidrop Combi dispenser (ThermoFisher Scientific, Waltham, MA). The assay plates were incubated at 37C and 5% CO2 for an overnight (18-20hr). Then positive control and test compounds dissolved in DMSO were transferred to the assay plates at 23nL using a Pintool station (Wako, San Diego, CA). Following the compound and positive control transfer, 1uL stimulation mix containing 100uM IBMX and 25uM Ro-20-1724 was added to each well of the assay plates using BioRAPTR Flying Reagent Dispenser (FRD, Beckman Coulter, Brea, CA). The assay plates were incubated at room temperature for 0.5hr. Then 2.5ul each d2-labled cAMP and anti-cAMP-cryptate solutions were added separately to each well of the assay plates using an FRD and the assay plates were incubated at room temperature for 1hr.
% is set by controls: 0 for no effect and ±100 for the full control effect; potency is the fitted concentration of half-maximal effect.

| Structure (SMILES) | Potency | activation |
| --- | --- | --- |
| ClC(Cl)(Cl)Br | inconclusive: 0.0163 µM [inhibitor, full curve, poor fit] |  |
| CCC(=O)C(CC(C)N(C)C)(c1ccccc1)c1ccccc1 (stereo not given) | inconclusive: 6.07 µM [inhibitor, partial curve, poor fit] |  |
| COC(=O)NC(=S)Nc1ccccc1NC(=S)NC(=O)OC |  | inconclusive: -18.2% |
| c1cc[c]([Sb]([c]2ccccc2)[c]2ccccc2)cc1 |  | inconclusive: 0.44% |
| C=CCC1=C(C)C(OC(=O)C2C(C=C(C)C)C2(C)C)CC1=O (stereo not given) | inconclusive: 0.0051 µM [inhibitor, full curve, poor fit] |  |
| O=NN1CCCCCC1 | inconclusive: 10.9 µM [inhibitor, partial curve, poor fit] |  |
| CC1NCCOC1c1ccccc1 (stereo not given) |  | inactive: -29% [at 42.5 µM] |
| Cc1cc(C)cc(C)c1 | inconclusive: 6.03 µM [inhibitor, partial curve, poor fit] and inconclusive: 571 nM [inhibitor, single point] |  |
| CCCCOP(=O)(O)OCCCC |  | inactive: -35.1% |
| CCO[C@H]1O[C@@H]2OC3(C)CC[C@H]4[C@H](C)CC[C@@H]([C@H]1C)[C@@]24OO3 | inconclusive: 0.0021 µM [rising, full curve, poor fit] |  |
| COP(=S)(OC)SCn1nnc2ccccc2c1=O |  | inconclusive: -8.5% |
| O=Cc1ccccc1 |  | inconclusive: 0.747% |
| Nc1ccc2ccccc2c1 | inconclusive: 26.4 µM [inhibitor, partial curve, poor fit] | inconclusive: -61.3% |
| CCOP(=S)(OCC)Oc1ccc(S(C)=O)cc1 (stereo not given) |  | inactive: -24.7% |
| C=CC(=C)C |  | inconclusive: -4.56% |
| CC(C)(O)C#N | inactive and inconclusive: 611 nM [inhibitor] |  |
| CN(C)P(=O)(N(C)C)N(C)C | inactive and inconclusive: 243 nM [inhibitor, single point] |  |
| C=CC(=O)OC(C)(C)C |  | inactive: -17.2% |
| NC(=S)Nc1ccccc1 | inconclusive: 0.0172 µM [rising, full curve, poor fit] | inconclusive: -21.9% |
| COP(=O)(OC)C(O)C(Cl)(Cl)Cl (stereo not given) | inconclusive: 8.41 µM [activator, full curve, poor fit] | inconclusive: 1.65% |
| CCCCc1c(C)nc(NCC)nc1OS(=O)(=O)N(C)C | inconclusive: 7.7 µM [inhibitor, full curve, poor fit] |  |
| O=C1C=CC(=O)c2ccccc21 |  | inconclusive: 29.1% |
| O=C(Nc1ccccc1)N(Cc1ccc(Cl)cc1)C1CCCC1 |  | inactive: -25.4% |
| Cc1cccc(N)c1 | inconclusive: 30.8 µM [inhibitor, partial curve, poor fit] | inconclusive: -33.2% and inconclusive: -32.9% |
| c1ccc2c(c1)Sc1ccccc1N2CC1CN2CCC1CC2 (stereo not given) |  | inconclusive: -29.4% [at 42.5 µM] |
| CN1C(=O)C(O)N=C(c2ccccc2)c2cc(Cl)ccc21 (stereo not given) | active: 31.7 µM |  |
| CCCCOC(=O)[C@@H](C)Oc1ccc(Oc2ccc(C#N)cc2F)cc1 |  | inconclusive: 6.69% |
| Clc1ccc(C(c2ccc(Cl)cc2)C(Cl)(Cl)Cl)cc1 | inconclusive: 2.45 µM [inhibitor, single point] |  |

For reference, 2 of the compounds above:

| Structure (SMILES) | Potency | activation |
| --- | --- | --- |
| CC(C)(O)C#N | inactive and inconclusive: 611 nM [inhibitor] |  |
| CN(C)P(=O)(N(C)C)N(C)C | inactive and inconclusive: 243 nM [inhibitor, single point] |  |

Same assay, conditions: CHO-ADRB2 cells, cAMP HTRF, 30 min; at 8.39 µM (top of the series)

| Structure (SMILES) | activation |
| --- | --- |
| CC(=O)O | inactive: -4.33% |

Same assay, conditions: CHO-ADRB2 cells, cAMP HTRF, 30 min; at 19 µM (top of the series)

| Structure (SMILES) | activation |
| --- | --- |
| CC(=O)O | inconclusive: 8.93% |

Same assay, conditions: CHO-ADRB2 cells, cAMP HTRF, 30 min; at 42.5 µM (top of the series)

| Structure (SMILES) | activation |
| --- | --- |
| CCC(=O)C(CC(C)N(C)C)(c1ccccc1)c1ccccc1 (stereo not given) | inconclusive: 6.98% |

Same assay, conditions: CHO-ADRB2 cells, cAMP HTRF, 30 min; at 92.4 µM (top of the series)

| Structure (SMILES) | activation |
| --- | --- |
| CCC(=O)C(CC(C)N(C)C)(c1ccccc1)c1ccccc1 (stereo not given) | inconclusive: -4.23% |
| COC(=O)NC(=S)Nc1ccccc1NC(=S)NC(=O)OC | inactive: 5.63% |
| COP(=S)(OC)SCn1nnc2ccccc2c1=O | inactive: -7.77% |
| CC(=O)O | inconclusive: -35% and inconclusive: -14.9% |
| COP(=O)(OC)C(O)C(Cl)(Cl)Cl (stereo not given) | inactive: 0.892% |
